## Results of single-concentration screens

Sequences of proteins named here, by UniProt entry; tags and fusion partners are left off. Residues count along the entry.
UniProt I6X8D2, whole entry: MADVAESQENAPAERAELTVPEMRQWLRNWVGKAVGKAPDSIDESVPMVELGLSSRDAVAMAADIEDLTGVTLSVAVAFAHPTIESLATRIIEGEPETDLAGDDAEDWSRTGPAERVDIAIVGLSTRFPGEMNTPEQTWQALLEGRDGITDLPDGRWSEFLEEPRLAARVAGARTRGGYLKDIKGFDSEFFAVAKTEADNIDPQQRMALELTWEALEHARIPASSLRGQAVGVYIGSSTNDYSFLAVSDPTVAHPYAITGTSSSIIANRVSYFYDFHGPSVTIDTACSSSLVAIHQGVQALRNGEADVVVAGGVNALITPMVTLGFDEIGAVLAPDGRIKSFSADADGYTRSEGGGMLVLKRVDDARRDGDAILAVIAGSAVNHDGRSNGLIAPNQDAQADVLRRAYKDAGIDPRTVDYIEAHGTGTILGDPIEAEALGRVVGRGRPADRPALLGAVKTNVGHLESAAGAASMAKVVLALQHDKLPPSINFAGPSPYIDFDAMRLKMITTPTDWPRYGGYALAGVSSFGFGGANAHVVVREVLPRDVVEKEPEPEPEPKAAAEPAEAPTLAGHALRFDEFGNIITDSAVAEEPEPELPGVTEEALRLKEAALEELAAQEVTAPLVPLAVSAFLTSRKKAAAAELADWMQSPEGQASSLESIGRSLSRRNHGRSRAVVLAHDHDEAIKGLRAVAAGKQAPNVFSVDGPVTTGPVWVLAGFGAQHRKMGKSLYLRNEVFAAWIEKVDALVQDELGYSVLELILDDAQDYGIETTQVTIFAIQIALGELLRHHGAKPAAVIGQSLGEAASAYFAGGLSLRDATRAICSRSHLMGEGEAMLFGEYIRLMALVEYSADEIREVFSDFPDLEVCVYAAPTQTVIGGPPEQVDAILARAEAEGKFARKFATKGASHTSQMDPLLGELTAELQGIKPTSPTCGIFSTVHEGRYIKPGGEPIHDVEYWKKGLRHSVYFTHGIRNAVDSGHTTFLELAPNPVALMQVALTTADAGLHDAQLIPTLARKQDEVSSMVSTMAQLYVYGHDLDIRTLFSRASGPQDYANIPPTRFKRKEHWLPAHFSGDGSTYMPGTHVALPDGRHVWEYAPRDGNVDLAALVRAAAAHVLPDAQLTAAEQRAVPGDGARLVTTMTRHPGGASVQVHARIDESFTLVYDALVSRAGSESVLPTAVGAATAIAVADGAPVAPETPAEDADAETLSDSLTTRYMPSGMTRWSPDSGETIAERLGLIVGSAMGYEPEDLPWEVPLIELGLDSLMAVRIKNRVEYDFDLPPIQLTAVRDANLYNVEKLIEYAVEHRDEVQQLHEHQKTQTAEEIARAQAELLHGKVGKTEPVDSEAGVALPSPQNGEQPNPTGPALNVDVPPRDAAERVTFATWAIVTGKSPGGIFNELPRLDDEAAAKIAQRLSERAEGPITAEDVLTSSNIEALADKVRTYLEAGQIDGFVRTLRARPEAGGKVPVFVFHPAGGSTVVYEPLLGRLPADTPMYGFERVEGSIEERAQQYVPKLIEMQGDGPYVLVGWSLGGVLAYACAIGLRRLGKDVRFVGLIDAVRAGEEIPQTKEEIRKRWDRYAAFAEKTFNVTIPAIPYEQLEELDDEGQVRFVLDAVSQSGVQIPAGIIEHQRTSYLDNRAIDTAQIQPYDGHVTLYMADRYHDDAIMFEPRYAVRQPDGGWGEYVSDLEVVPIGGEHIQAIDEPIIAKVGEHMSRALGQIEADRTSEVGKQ
UniProt P9WNZ1, whole entry: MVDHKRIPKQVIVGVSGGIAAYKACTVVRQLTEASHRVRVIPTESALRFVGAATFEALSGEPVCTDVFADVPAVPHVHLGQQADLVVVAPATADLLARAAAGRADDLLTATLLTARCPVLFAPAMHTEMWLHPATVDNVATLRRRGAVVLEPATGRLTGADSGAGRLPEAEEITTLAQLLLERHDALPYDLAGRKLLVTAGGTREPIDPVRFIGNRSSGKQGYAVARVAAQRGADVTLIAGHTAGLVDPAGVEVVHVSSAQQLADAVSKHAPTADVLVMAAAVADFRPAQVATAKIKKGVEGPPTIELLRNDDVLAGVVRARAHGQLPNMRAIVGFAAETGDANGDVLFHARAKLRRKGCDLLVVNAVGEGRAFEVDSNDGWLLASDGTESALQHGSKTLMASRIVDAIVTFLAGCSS
UniProt Q8IDJ8, 1-583: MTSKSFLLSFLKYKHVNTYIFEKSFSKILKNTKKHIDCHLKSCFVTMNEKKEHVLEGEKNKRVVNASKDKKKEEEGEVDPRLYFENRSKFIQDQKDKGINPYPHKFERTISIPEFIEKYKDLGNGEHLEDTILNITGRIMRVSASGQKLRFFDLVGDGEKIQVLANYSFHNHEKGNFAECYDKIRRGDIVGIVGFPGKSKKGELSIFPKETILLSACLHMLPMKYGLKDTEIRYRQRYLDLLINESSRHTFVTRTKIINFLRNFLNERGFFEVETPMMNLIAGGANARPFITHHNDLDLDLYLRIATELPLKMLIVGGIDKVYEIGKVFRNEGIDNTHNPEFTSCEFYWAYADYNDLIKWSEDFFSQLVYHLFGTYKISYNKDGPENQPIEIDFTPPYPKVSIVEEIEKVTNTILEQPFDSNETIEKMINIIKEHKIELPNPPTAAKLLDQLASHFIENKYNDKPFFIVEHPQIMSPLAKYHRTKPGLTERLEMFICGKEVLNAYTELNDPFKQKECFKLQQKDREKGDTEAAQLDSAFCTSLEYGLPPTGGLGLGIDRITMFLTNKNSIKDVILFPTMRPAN
UniProt Q4DA54, 1-478: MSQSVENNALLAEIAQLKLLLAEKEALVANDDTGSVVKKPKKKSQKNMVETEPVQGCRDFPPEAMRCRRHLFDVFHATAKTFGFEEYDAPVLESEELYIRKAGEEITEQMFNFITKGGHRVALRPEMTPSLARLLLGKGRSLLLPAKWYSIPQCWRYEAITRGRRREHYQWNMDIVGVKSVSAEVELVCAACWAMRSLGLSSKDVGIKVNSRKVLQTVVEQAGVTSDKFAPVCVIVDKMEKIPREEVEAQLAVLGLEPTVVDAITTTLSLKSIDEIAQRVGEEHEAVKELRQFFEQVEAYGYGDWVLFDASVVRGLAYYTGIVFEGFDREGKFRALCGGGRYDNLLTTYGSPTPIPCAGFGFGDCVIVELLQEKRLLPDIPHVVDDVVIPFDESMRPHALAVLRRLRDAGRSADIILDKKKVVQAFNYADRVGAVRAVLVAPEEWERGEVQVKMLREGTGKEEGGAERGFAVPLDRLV

From ChEMBL document CHEMBL3988442, “University of Dundee, Small-Polar-MMV Screening Library” (2021).

Pks13 thioesterase: 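Enzyme assay of the thioesterase domain of polyketide synthase 13; the read-out is not stated. Target: Polyketide synthase Pks13, Mycobacterium tuberculosis (UniProt I6X8D2). Concentration: 30 µM. Higher reads as stronger inhibition (inferred from which compounds were picked for retests). About 67,000 compounds were tested under these conditions; 0.46% (about 300) showed 50% or more at least once.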
CoaBC: 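Enzyme assay of CoaBC with a phosphate dye (Biomol Green) read at 650 nm. Target: Coenzyme A biosynthesis protein CoaBC, Mycobacterium tuberculosis (UniProt P9WNZ1). Concentration: 30 µM. Higher reads as stronger inhibition, judged from the few compounds that gave an IC50. Most strong results did not repeat in a second test. Size under these conditions: about 67,000 compounds, about 40 of them at 50% or above in at least one test.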
PfKRS1: 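Lysine-tRNA ligase, Plasmodium falciparum 3D7 (UniProt Q8IDJ8). Enzyme assay of the cytosolic lysyl-tRNA synthetase in 384-well plates, read by luminescence. Concentration: 30 µM. Direction is inferred from only a few compounds that gave an IC50; most scored high, so higher reads as stronger inhibition. Of about 69,000 compounds tested this way, about 49 (0.071%) reached 50% or more in at least one test.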
TcHisRS: 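Histidine-tRNA ligase, Trypanosoma cruzi CL Brener (UniProt Q4DA54). Enzyme assay of histidyl-tRNA synthetase; the read-out is not stated. Tested at 30 µM. Higher reads as stronger inhibition (inferred: compounds with an IC50 in retests scored well above the rest). About 69,000 compounds were tested under these conditions; 0.045% (about 31) showed 50% or more at least once.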

Each number is a percent effect as filed. The record does not define 0% and 100%; most values in the screen are far below 50% and negative numbers occur (in some assays of this library far below -100). Compounds were drawn at random from those tested, without regard to their results. A dash means the value is not listed here; it may have been measured.

Compound	Pks13 thioesterase	CoaBC	PfKRS1	TcHisRS
CCNC(c1cccnc1)c1ccc(F)cc1F (centres undefined)	-	12.55	1.364	3.152
O=C(C[S+]([O-])Cc1csc(C2CCCC2)n1)Nc1ccccc1 (centres undefined)	-37.79	10.8	0.8658	2.299
Cc1nnc(Nc2cccc(C3CCN(CCO)CC3)n2)s1	5.418	7.513	-1.895	-0.5464
CNC(=O)c1ccc(CNc2ccncc2Cl)cc1	-22	1.408	2.899	0.6135
Cc1ccc(CNC(=O)c2nc3c(o2)CN(c2ncccn2)C3)o1	-13.85	-	9.942	5.063
CC(C)C(NC(=O)c1ccc(N2CCOCC2)nc1)c1cccs1 (centres undefined)	-38.71	17.2	0.9812	-1.149
O=C(CN1CCCC1)N1CCCC(CNS(=O)(=O)Cc2ccccc2)C1 (centres undefined)	-15.86	3.121	0.782	6.122
Cc1cccnc1CC(C)N(C)C(=O)c1ccoc1C (centres undefined)	-2.284	13.04	-4.081	1.604
CCc1ncc2c(n1)CN(c1nc(C)ccc1C(=O)O)C2	-8.169	-2.358	5.27	5.155
O=C(NC1CC1)C1CNCCN1C(=O)CCOc1ccccc1 (centres undefined)	-18.23	0.3774	6.428	5.357
CN(Cc1nnc(C2CC2)n1C)C1CCN(Cc2nccn2C)C1 (centres undefined)	-2.279	13.16	6.857	5.233
CN(C(=O)c1ccc2c(c1)nc(N1CC[C@H](O)C1)n2C)C1CCSCC1	-12.78	2.893	2.472	-2.679
Cc1cc(CN2CCN(C(=O)c3sccc3C3CC3)CC2)no1	-2.554	2.611	1.436	5.539
COc1cc(C(=O)NS(=O)(=O)c2cc(Cl)sc2Cl)ccc1OC(F)F	17.95	-5.785	5.444	10
O=C(N1CCCC1)N1CCO[C@H]2[C@@H](OCc3cccnc3)CC[C@@H]21	-24.2	8.143	-0.8285	1.961
CCCc1nc(C(C)(C)NC(=O)c2ccnn2C)no1	-7.488	7.851	0	-1.734
CC(C)C(=O)N1CCOC2(COCCN(c3ncccn3)C2)C1 (centres undefined)	-3.65	3.585	3.148	2.041
COc1ccc(OC2CCN(C(=O)CCc3n[nH]c(N)n3)CC2)cc1	-10.36	15.07	-6.158	2.4
O=C(CCc1cccc(F)c1F)N1CCN(Cc2ccco2)CC1	-11.94	6.183	-2.521	-1.667
O=C(NCc1ccc(-n2cncn2)nc1)c1ccoc1	-6.591	5.101	-1.156	-3.008
Cn1ccnc1CN1CCCN(C(=O)COC2CCCCC2)CC1	-13.05	0.1272	-2.536	7.324
O=C1NCC2(CCCN(Cc3ccccc3OCCO)C2)O1 (centres undefined)	-22.01	-1.811	13.15	3.933
Cc1noc(C)c1CNC(=O)N1CCN(Cc2cscn2)CC1	-14.13	0.5319	3.214	-1.141
COCCNC(=O)[C@@]12CCO[C@@H]1CCN(Cc1ccncc1)C2	1.361	4.665	0.01173	7.563
CN(C)C[C@H]1C[C@@H](CO)CN(C(=O)CCc2nc(Cl)n[nH]2)C1	-4.043	3.043	-5.664	-0.5348
Cc1cccc(C(=O)NC(CN2CCCC2=O)c2ccccc2)n1 (centres undefined)	-6.657	2.926	5.275	3.422
CCC(=O)c1ccc(Br)cc1NN1c2cc(Br)ccc2C(=O)C1(C)OC (centres undefined)	-0.8296	2.658	3.848	4.969
Cc1cccc(S(=O)(=O)N2CSCC2C(=O)NC(C)(C)C)c1 (centres undefined)	-15.59	-10.04	6.944	1.064
CCc1nsc(N2CCN(C(=O)COc3ccccc3)CC2)n1	-5.027	11.93	4.084	9.574
COCCN(Cc1ccc(F)cc1Cl)C(=O)c1ccncc1	-8.473	-5.907	6.93	0.813
Cc1nnc(N2C[C@H](OCc3ccncc3)[C@H]3OCCC[C@H]32)s1	-19.13	11.98	3.765	0.4975
O=c1c2c(ncn1CCCO)nc1n2CCC1	-12.25	2.037	7.584	5.82
O=C(NCC1(O)COCCN(Cc2cccc(O)c2)C1)c1cnccn1 (centres undefined)	2.231	2.375	2.063	0.7692
Cc1nn(C)c(C)c1NC(=O)c1cccc(CN2C[C@H]3CC[C@@H](C2)N3)c1	-16.33	2.058	4.159	1.98
CS(=O)(=O)N1CCOCC2(CCN(C(=O)c3cnccn3)CC2)C1	8.751	2.096	1.31	3.509
COc1ccc(-n2nc(C)c(C(C)=O)c2C)cc1C(N)=O	2.486	2.066	3.598	9.827
Cc1ncc(C(=O)N2CCCC(n3cccn3)C2)s1 (centres undefined)	-4.345	4.099	-0.1929	4.871

5 of the entries, repeated:

O=C(CN1CCCC1)N1CCCC(CNS(=O)(=O)Cc2ccccc2)C1 (centres undefined) read Pks13 thioesterase: -15.86%; CoaBC: 3.121%; PfKRS1: 0.782%; TcHisRS: 6.122%.
COCCN(Cc1ccc(F)cc1Cl)C(=O)c1ccncc1 read Pks13 thioesterase: -8.473%; CoaBC: -5.907%; PfKRS1: 6.93%; TcHisRS: 0.813%.
CCc1nsc(N2CCN(C(=O)COc3ccccc3)CC2)n1 read Pks13 thioesterase: -5.027%; CoaBC: 11.93%; PfKRS1: 4.084%; TcHisRS: 9.574%.
CC(C)C(NC(=O)c1ccc(N2CCOCC2)nc1)c1cccs1 (centres undefined) read Pks13 thioesterase: -38.71%; CoaBC: 17.2%; PfKRS1: 0.9812%; TcHisRS: -1.149%.
CCCc1nc(C(C)(C)NC(=O)c2ccnn2C)no1 read Pks13 thioesterase: -7.488%; CoaBC: 7.851%; PfKRS1: 0%; TcHisRS: -1.734%.